{
  "sequences": {"note": "Protein sequences, listed by entry. Tags and fused reporters are not part of them. Lines headed by an entry give the natural chain unless they say otherwise; changes in a name come on top.", "UniProt Q9P1F3": "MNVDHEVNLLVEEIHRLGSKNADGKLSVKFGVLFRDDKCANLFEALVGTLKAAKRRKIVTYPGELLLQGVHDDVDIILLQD", "UniProt Q7Z3D6": "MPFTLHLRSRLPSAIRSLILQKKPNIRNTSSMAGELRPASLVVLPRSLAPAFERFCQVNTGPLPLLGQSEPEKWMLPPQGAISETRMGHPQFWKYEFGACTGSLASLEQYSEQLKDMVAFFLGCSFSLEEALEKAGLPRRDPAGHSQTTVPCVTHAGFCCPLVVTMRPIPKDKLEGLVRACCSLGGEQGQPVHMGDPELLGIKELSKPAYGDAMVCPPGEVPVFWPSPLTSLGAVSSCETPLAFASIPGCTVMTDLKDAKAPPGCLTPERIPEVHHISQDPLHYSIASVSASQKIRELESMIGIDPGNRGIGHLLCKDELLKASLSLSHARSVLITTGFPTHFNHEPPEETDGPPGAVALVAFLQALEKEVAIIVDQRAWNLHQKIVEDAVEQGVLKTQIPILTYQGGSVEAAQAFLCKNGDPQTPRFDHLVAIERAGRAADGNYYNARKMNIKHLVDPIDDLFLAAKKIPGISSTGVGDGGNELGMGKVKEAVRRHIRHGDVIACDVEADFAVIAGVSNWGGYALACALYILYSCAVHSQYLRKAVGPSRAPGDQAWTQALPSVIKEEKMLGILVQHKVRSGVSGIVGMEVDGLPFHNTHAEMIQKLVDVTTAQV", "UniProt Q13951, whole entry": "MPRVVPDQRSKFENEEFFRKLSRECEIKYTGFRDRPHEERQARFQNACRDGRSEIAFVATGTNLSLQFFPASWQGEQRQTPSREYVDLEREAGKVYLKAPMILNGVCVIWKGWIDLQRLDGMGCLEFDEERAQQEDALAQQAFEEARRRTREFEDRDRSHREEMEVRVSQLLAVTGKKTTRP", "UniProt Q8NDZ2": "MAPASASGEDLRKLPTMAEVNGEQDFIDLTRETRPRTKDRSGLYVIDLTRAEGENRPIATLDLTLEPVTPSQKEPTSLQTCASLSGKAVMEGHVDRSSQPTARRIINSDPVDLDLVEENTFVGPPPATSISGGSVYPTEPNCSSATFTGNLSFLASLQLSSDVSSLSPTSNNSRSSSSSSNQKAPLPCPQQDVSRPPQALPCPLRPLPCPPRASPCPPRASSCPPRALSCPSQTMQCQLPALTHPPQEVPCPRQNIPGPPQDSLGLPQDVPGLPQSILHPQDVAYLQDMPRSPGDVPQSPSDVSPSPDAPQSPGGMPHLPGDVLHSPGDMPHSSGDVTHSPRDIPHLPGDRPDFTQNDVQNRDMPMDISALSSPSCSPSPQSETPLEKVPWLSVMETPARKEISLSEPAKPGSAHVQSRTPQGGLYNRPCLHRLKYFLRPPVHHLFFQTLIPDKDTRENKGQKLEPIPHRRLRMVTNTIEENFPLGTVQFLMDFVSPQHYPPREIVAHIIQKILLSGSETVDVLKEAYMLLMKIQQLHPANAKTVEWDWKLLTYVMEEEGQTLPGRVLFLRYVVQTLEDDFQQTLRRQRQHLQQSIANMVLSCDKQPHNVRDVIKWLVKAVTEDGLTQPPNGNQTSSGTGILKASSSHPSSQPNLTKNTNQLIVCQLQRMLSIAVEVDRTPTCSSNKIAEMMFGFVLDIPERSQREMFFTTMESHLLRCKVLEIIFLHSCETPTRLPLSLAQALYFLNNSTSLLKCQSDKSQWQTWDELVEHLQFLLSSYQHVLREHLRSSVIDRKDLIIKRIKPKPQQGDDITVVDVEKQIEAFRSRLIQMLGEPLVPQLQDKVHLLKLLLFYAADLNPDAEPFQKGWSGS", "UniProt Q8NAT1": "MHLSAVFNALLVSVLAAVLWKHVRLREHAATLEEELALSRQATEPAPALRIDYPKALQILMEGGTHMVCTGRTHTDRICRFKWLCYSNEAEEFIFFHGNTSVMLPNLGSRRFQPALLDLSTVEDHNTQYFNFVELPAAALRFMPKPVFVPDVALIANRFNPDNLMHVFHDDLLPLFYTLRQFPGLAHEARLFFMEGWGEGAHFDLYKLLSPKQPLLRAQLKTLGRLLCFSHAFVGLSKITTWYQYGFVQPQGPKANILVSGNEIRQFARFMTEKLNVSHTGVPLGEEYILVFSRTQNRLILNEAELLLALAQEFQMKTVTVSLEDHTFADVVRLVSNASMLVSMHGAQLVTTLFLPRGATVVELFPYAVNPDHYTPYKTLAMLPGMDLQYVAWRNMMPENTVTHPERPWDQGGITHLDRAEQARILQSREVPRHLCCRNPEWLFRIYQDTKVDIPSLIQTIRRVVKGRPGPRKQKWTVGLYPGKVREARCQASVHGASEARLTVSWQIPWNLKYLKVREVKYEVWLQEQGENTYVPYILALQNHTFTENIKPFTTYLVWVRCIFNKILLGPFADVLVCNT", "UniProt Q12980": "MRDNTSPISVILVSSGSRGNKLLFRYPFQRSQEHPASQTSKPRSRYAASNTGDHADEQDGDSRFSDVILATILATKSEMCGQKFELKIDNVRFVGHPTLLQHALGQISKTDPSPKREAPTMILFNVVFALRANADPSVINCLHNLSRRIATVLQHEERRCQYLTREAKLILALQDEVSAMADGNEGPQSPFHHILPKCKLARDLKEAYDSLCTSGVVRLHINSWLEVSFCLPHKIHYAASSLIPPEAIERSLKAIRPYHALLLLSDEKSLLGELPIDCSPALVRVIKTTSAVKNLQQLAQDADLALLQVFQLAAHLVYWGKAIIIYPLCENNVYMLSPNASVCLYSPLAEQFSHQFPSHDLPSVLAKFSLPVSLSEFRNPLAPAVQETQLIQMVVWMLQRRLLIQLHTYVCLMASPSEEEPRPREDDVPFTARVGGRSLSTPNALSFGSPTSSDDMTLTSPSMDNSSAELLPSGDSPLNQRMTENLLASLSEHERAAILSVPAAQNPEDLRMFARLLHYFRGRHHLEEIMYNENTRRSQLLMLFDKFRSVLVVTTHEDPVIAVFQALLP", "UniProt Q9Y312": "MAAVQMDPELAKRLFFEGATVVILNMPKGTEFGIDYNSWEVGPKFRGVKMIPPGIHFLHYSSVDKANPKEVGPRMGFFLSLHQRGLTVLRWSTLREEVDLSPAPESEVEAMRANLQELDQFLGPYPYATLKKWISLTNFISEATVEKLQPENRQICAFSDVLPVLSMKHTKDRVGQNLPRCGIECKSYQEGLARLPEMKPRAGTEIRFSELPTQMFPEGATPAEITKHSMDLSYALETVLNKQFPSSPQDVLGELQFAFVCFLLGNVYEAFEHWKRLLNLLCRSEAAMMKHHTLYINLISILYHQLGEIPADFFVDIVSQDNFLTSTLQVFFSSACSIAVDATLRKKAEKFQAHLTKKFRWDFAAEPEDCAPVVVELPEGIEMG", "UniProt Q96BR5": "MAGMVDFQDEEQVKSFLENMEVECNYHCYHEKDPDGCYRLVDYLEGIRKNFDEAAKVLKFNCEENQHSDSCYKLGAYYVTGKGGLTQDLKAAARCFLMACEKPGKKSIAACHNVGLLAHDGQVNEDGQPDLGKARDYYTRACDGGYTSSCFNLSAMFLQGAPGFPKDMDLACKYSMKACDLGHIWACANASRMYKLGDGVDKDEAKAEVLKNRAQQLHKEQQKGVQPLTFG", "UniProt Q0VG06": "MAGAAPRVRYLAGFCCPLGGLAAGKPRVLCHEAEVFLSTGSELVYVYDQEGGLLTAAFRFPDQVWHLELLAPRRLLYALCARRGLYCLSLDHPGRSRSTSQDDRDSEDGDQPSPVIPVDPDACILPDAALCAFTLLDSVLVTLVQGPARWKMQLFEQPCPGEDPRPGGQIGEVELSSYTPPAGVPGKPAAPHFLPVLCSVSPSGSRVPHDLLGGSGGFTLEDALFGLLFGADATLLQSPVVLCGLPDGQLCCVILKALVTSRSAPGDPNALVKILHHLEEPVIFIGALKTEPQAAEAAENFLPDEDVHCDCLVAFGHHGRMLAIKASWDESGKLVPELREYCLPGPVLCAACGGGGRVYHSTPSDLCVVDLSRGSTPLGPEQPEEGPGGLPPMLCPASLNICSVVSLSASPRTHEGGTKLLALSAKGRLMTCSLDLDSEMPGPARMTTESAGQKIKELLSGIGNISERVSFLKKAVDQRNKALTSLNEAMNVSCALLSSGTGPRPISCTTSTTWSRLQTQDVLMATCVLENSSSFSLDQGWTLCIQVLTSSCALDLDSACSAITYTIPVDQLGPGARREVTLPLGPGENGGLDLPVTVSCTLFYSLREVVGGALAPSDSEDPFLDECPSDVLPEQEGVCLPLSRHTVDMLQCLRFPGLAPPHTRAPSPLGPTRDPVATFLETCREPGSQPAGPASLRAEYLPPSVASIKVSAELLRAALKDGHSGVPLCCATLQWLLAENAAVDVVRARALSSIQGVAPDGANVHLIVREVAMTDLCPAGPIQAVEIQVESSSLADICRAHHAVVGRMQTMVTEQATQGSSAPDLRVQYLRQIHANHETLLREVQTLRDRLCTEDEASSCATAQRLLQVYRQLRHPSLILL", "UniProt Q9P0B6": "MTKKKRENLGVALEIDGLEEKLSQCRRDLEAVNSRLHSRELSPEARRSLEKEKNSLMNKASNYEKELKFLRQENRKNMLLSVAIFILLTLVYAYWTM", "UniProt Q49AR2": "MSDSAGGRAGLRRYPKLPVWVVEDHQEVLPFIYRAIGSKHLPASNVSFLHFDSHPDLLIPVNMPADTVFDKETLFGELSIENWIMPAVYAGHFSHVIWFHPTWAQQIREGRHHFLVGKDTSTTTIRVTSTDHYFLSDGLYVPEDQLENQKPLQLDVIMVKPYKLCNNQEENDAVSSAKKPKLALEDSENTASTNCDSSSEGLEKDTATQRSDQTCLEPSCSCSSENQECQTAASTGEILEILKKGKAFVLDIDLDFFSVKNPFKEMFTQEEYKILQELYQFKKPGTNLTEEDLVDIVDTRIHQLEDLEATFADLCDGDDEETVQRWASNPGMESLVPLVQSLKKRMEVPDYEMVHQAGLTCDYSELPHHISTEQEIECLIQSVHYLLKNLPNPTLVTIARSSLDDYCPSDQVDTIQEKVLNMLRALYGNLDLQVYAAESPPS", "UniProt Q68CZ6": "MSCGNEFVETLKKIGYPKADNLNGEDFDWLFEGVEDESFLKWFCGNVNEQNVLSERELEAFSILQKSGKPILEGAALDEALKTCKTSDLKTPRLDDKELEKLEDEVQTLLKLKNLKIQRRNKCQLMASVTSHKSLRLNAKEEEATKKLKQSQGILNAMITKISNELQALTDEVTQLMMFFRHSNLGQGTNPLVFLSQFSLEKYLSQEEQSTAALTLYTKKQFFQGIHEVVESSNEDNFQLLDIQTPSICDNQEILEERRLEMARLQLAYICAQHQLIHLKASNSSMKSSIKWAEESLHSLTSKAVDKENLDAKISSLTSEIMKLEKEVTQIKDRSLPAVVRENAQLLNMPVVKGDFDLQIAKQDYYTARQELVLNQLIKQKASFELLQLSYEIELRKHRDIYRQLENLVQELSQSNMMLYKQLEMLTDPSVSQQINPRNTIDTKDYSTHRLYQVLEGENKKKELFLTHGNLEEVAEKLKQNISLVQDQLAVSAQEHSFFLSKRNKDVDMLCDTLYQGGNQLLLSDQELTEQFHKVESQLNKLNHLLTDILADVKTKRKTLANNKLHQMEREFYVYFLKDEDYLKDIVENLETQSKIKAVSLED"},
  "source": "the supplement of paper PMC7666118",
  "note": "Some of the results follow.",
  "data": [
    {"compound": "COc1ccc(Cn2ccc3ccc(C(=O)NO)cc32)cc1", "test": "dose-dependent thermal stabilisation call (2D-TPP, DLPTP, 10% FDR) (binary (1 = stabilised)); higher = stabilised by the compound", "conditions": "system: HL-60 intact cells; concentration range 0.04-10 µM", "values": [
      {"target": "C6ORF115 (UniProt Q9P1F3)", "dose-dependent thermal stabilisation call": "active: 1"},
      {"target": "C14ORF159 (UniProt Q7Z3D6)", "dose-dependent thermal stabilisation call": "inactive: 0"},
      {"target": "C16ORF62 (UniProt Q7Z3J2)", "dose-dependent thermal stabilisation call": "inactive: 0"},
      {"target": "C2ORF79 (UniProt Q6GMV3)", "dose-dependent thermal stabilisation call": "inactive: 0"},
      {"target": "C21ORF45 (UniProt Q9NYP9)", "dose-dependent thermal stabilisation call": "inactive: 0"},
      {"target": "CBFB (UniProt Q13951)", "dose-dependent thermal stabilisation call": "inactive: 0"},
      {"target": "C5ORF25 (UniProt Q8NDZ2)", "dose-dependent thermal stabilisation call": "inactive: 0"},
      {"target": "C3ORF39 (UniProt Q8NAT1)", "dose-dependent thermal stabilisation call": "inactive: 0"},
      {"target": "C1ORF43 (UniProt Q9BWL3)", "dose-dependent thermal stabilisation call": "inactive: 0"},
      {"target": "C16ORF35 (UniProt Q12980)", "dose-dependent thermal stabilisation call": "inactive: 0"},
      {"target": "C3ORF38 (UniProt Q5JPI3)", "dose-dependent thermal stabilisation call": "inactive: 0"},
      {"target": "CAMLG (UniProt P49069)", "dose-dependent thermal stabilisation call": "inactive: 0"},
      {"target": "CAB39L (UniProt Q9H9S4)", "dose-dependent thermal stabilisation call": "inactive: 0"},
      {"target": "C4ORF30 (UniProt Q9NXF7)", "dose-dependent thermal stabilisation call": "inactive: 0"},
      {"target": "C20ORF4 (UniProt Q9Y312)", "dose-dependent thermal stabilisation call": "inactive: 0"},
      {"target": "C1ORF163 (UniProt Q96BR5)", "dose-dependent thermal stabilisation call": "inactive: 0"},
      {"target": "C17ORF42 (UniProt Q96QE5)", "dose-dependent thermal stabilisation call": "inactive: 0"},
      {"target": "C1ORF144 (UniProt Q7Z422)", "dose-dependent thermal stabilisation call": "inactive: 0"},
      {"target": "C9ORF40 (UniProt Q8IXQ3)", "dose-dependent thermal stabilisation call": "inactive: 0"},
      {"target": "C17ORF70 (UniProt Q0VG06)", "dose-dependent thermal stabilisation call": "inactive: 0"},
      {"target": "C17ORF62 (UniProt Q9BQA9)", "dose-dependent thermal stabilisation call": "inactive: 0"},
      {"target": "C14ORF142 (UniProt Q9BXV9)", "dose-dependent thermal stabilisation call": "inactive: 0"},
      {"target": "C6ORF129 (UniProt Q9P0B6)", "dose-dependent thermal stabilisation call": "inactive: 0"},
      {"target": "C5ORF22 (UniProt Q49AR2)", "dose-dependent thermal stabilisation call": "inactive: 0"},
      {"target": "C4ORF15 (UniProt Q68CZ6)", "dose-dependent thermal stabilisation call": "inactive: 0"}
    ]}
  ]
}
